According to patent US20190161756, “Anti-Immunoglobulin G Aptamers and Uses Thereof” (Laboratoire Francais du Fractionnement et des …, published 2019):

Assays:
[1] = tested on: Human polyclonal IgG (plasma) (Homo sapiens); test: binding assay; settings: affinity chromatography, 5 mM MgCl2 pH 5.5, eluted pH 7.4, most plasma contaminants not retained, purified native protein, single-stranded DNA
[2] = tested on: Human polyclonal IgG (plasma) (Homo sapiens); test: SPR; settings: purified native protein, label: biotin, single-stranded DNA
[3] = tested on: IgG1 (plasma IgG sub-class) (Homo sapiens); test: SPR; settings: pH 5.5, purified native protein, single-stranded DNA
[4] = tested on: IgG2 (plasma IgG sub-class) (Homo sapiens); test: SPR; settings: purified native protein, single-stranded DNA
[5] = tested on: IgG3 (plasma IgG sub-class) (Homo sapiens); test: SPR; settings: pH 5.5, purified native protein, label: biotin, single-stranded DNA
[6] = 5' biotin-triethylene glycol spacer, resistant to 2 M NaCl, label: biotin
[7] = 5' biotin-triethylene glycol spacer, pH 5.5, resistant to 2 M NaCl, label: biotin

“AAGTTTGTGGGGCTGGGGTTCGGTCCTGGCACAAATTCGT [A6-4 core]”: binds ([1]; 5' amino-C6 spacer, IgG subclass distribution retained, variant of A6-4).
“GGGTCAATGCCAGGTCTCAAGTTTGTGGGGCTGGGGTTCGGTCCTGGCACAAATTCGTATCGGCTCGCAAGCAGTC [A6-4]”: binds ([2]; 5' biotin-triethylene glycol spacer, IgG 200 nM, MESBS pH 5.5 with or without 5 mM Mg2+); binds [3, 6]; binds [4, 7]. “GGGTCAATGCCAGGTCTCAAGTTTGTGGGGCTGGGGTTCGGTCCTGGCACAAATTCGTATCGGCTCGCAAGCAGTC [A6-4]”: binds ([5]; 5' biotin-triethylene glycol spacer, resistant to 2 M NaCl).
“GGGTCAATGCCAGGTCTCCACGGTATAGTCTCGCCCAGTGCCCTTTGTTGGACTTCCTATCGGCTCGCAAGCAGTC [A6-8]”: binds ([2]; 5' biotin-triethylene glycol spacer, IgG 200 nM, pH 5.5, resistant to 2 M NaCl, released at pH 7.4); binds [3, 6]; binds [4, 7]. “GGGTCAATGCCAGGTCTCCACGGTATAGTCTCGCCCAGTGCCCTTTGTTGGACTTCCTATCGGCTCGCAAGCAGTC [A6-8]”: binds ([5]; 5' biotin-triethylene glycol spacer, complex less resistant to 2 M NaCl).
“GGGTCAATGCCAGGTCTCCCCAGCCTCATCTCACGGCATAGTCTCGCCACACTGGAAATCGGCTCGCAAGCAGTC [A6-2]”: binds ([2]; 5' biotin-triethylene glycol spacer (SPR), 5' amino-C6 spacer and 3' idT (chromatography), IgG 200 nM, 50 mM MES 150 mM NaCl pH 5.5, resistant to 2 M NaCl, released at pH 7.4, highest binding at pH 5.30); no binding ([2]; 5' biotin-triethylene glycol spacer (SPR), 5' amino-C6 spacer and 3' idT (chromatography), no significant binding above pH 6.0); binds ([3]; 5' biotin-triethylene glycol spacer (SPR), 5' amino-C6 spacer and 3' idT (chromatography), resistant to 2 M NaCl, label: …). “GGGTCAATGCCAGGTCTCCCCAGCCTCATCTCACGGCATAGTCTCGCCACACTGGAAATCGGCTCGCAAGCAGTC [A6-2]”: binds ([4]; 5' biotin-triethylene glycol spacer (SPR), 5' amino-C6 spacer and 3' idT (chromatography), pH 5.5, resistant to 2 M NaCl, label: …); binds ([5]; 5' biotin-triethylene glycol spacer (SPR), 5' amino-C6 spacer and 3' idT (chromatography), complex less resistant to 2 M NaCl); binds ([1]; 5' biotin-triethylene glycol spacer (SPR), 5' amino-C6 spacer and 3' idT (chromatography), yield 82% purified IgG, 66% plasma, purity >95%, label: biotin).
“GGGTCAATGCCAGGTCTCGACTATTCCTCCGGCCTCTTCCCTAATCAGTGGCATCTCTATCGGCTCGCAAGCAGTC [A6-3]”: binds more weakly ([3]; 5' biotin-triethylene glycol spacer, slower association than IgG2/IgG4, eluted by 2 M NaCl, label: biotin); binds ([4]; 5' biotin-triethylene glycol spacer, label: biotin); binds more weakly ([5]; 5' biotin-triethylene glycol spacer, slower association than IgG2/IgG4, eluted by 2 M NaCl).

The exact form of at least one protein or probe is not confirmed. For part of these data: No signal at the amounts used counts as a negative. For part of these data: A weaker result is weaker than the reference pair of the same experiment.
